Reference: PubChem BioAssay AID686938 (Drosophila RNAi Screening Center, 2013)

Assay: 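Looking for CRAC channel components and the factors controlling them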 (primary screen)
Cells: Drosophila S2R+ cells
Reagent: long dsRNA against Drosophila genes, about 0.25 µg dsRNA per well, roughly 10,000 cells
Duration: 5 days of knock-down before the calcium assay
Treatment: thapsigargin (SERCA pump blocker) to empty calcium stores; entry signal taken 4 min after adding it
Detection: 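Duplicate raw fluo-4 intensities per well from a plate reader, at rest and four minutes after thapsigargin emptied calcium stores; entry-to-rest ratio filled for only some wells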
Scale: calcium entry signal: higher = stronger calcium signal after store depletion; entry to resting ratio: higher = more calcium entry relative to resting level; resting calcium signal: higher = higher resting calcium signal
Call rule: 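Hit if the duplicate-averaged plate z-score for entry over resting signal is under −3; wells with weak total dye signal (Fmax z < −2) or more than 5 off-targets removed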
Calls: active = strongly reduced calcium entry; inactive = no strong reduction
The deposit covers about 23,000 reagents; below is an unselected part of those that have a named target and a result. In the full data, 75 (0.33%) are marked active. 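Raw plate signals without normalisation; calls rest on plate z-scores that were not deposited; ratio present for only 364 wells.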 The numbers tell different reagents against one gene apart. The record does not give: the dose of the treatment.

predicted target	reagent	calcium entry signal, replicate 1 (fluorescence units)	calcium entry signal, replicate 2 (fluorescence units)	entry to resting ratio	resting calcium signal, replicate 1 (fluorescence units)	resting calcium signal, replicate 2 (fluorescence units)	activity call
Send2	1	4.21e7	3.42e7		1.96e7	1.68e7	inactive
CG17819	1	4.28e7	5.25e7		6.44e7	2.40e7	inactive
CG13369	1	2.63e7	4.54e7	1.8	1.47e7	1.98e7	inactive
CG12133	1	2.32e7	2.94e7		1.25e7	1.32e7	inactive
Hr4	1	4.23e7	4.00e7	2.1	1.99e7	2.25e7	inactive
Hr4	2	3.60e7	7.55e7	2.1	1.72e7	2.79e7	inactive
Hr4	3	2.31e7	4.02e7		1.37e7	1.62e7	inactive
Hr4	4	1.71e7	3.65e7		1.10e7	1.67e7	inactive
Hr4	5	5.21e7	3.24e7		2.52e7	1.41e7	inactive
Hr4	6	2.93e7	3.30e7		1.93e7	1.66e7	inactive
Acsf2	1	3.54e7	3.78e7		1.79e7	1.64e7	inactive
Mo25	1	2.22e7	2.95e7		1.14e7	2.09e7	inactive
RpL35	1	1.28e7	1.39e7		9.19e6	9.46e6	inactive
CG33217	1	3.75e7	5.21e7		2.05e7	2.22e7	inactive
Camp	1	4.85e7	4.37e7		1.96e7	2.13e7	inactive
Galphao	1	4.86e7	4.42e7		2.12e7	1.94e7	inactive
mRpS29	1	4.47e7			2.23e7		inactive
Acsf3	1	4.07e7	4.47e7		1.94e7	1.98e7	inactive
CG14330	1	3.82e7	4.79e7		1.78e7	7.63e7	inactive
brun	1	4.23e7			2.02e7		inactive
NANS	1	4.18e7	4.02e7		1.97e7	2.08e7	inactive
Lamtor5	1	3.37e7	5.09e7	1.8	1.83e7	2.10e7	inactive
CG14277	1	3.34e7	5.23e7		1.58e7	2.04e7	inactive
Z600	1	3.42e7	5.36e7		1.77e7	2.09e7	inactive
Obp57c	1	2.84e7	4.98e7		2.06e7	2.17e7	inactive
CG13856	1	3.71e7	4.54e7		4.65e7	1.96e7	inactive
CG3078	1	3.93e7	4.14e7		1.86e7	2.09e7	inactive
CG30393	1	2.86e7	3.32e7		1.33e7	1.45e7	inactive
CG9849	1	4.40e7	4.39e7		2.16e7	1.98e7	inactive
CG13282	1	3.53e7	2.43e7		1.62e7	1.17e7	inactive
HLH54F	1	4.33e7	4.91e7		1.79e7	2.41e7	inactive
CR33283	1	3.23e7	3.51e7		1.72e7	1.55e7	inactive
CG9215	1	2.65e7	3.98e7		1.41e7	1.85e7	inactive
Mtr4	1	2.13e7			1.61e7		inactive
CG1827	1	3.48e7	3.02e7		1.57e7	1.49e7	inactive
TotM	1	3.80e7	4.40e7		1.88e7	1.92e7	inactive
Rim	1	3.17e7	4.35e7		5.11e7	1.84e7	inactive
Rim	2	2.30e7	2.65e7		3.74e7	1.42e7	inactive
Rim	3	3.84e7	3.14e7		1.77e7	1.45e7	inactive
Rim	4	3.15e7	3.05e7		3.61e7	1.33e7	inactive
Rim	5	2.30e7	2.68e7		1.23e7	1.18e7	inactive
